PubChem BioAssay AID1259308, NCATS – 2017
Screen: 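Genes whose loss raises luciferase production in HEK293 cells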 (primary screen). System: human HEK293 embryonic kidney cells stably expressing firefly luciferase (HEK-CMV-Luc2-Hygro). Knock-down reagent: single siRNA against human genes, 0.8 pmol siRNA per well. Duration: 72 h. Detection: 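Reporter luminescence and viable-cell signal on separate replicate plates, given as percent of non-targeting control and median/MAD z-scores, plus per-cell luciferase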. Scale: total luciferase, z-score and total luciferase, % of control: higher = more reporter protein produced. Call rule: 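Active when the median/MAD z-score for overall luciferase is greater than 3; a gene was taken forward for validation with new siRNAs if at least two of its three siRNAs passed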. Calls: active = raised luciferase; inactive = no rise.
Shown is a random part of about 59,000 reagents tested. Over the whole deposit, about 1,510 (2.6%) are marked active. 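Calls use total luciferase alone and ignore viability, so some active siRNAs may act by altering cell number.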 Unmarked entries are inactive. The numbers tell different reagents against one gene apart. Not all columns of the deposit are shown.

What is on record for TEX28 (GeneID 1527) #1?
total luciferase, z-score: 0.0618; total luciferase, % of control: 83.1

Which result is listed for TEX28 (GeneID 1527) #2?
total luciferase, z-score: -1.26; total luciferase, % of control: 56.8

For TEX28 (GeneID 1527) #3, how do the results read?
total luciferase, z-score: 1.11; total luciferase, % of control: 104

What is on record for ASB3 (GeneID 51130) #1?
total luciferase, z-score: 0.145; total luciferase, % of control: 84.8

With ASB3 (GeneID 51130) #2, how do the results read?
total luciferase, z-score: 0.418; total luciferase, % of control: 90.2

For ASB3 (GeneID 51130) #3, what was measured?
total luciferase, z-score: -0.231; total luciferase, % of control: 77.3

What is on record for STEAP1B (GeneID 256227) #1?
total luciferase, z-score: 3.44 (active); total luciferase, % of control: 150

For STEAP1B (GeneID 256227) #2, what was measured?
total luciferase, z-score: 0.19; total luciferase, % of control: 85.7

With STEAP1B (GeneID 256227) #3, how do the results read?
total luciferase, z-score: 0.823; total luciferase, % of control: 98.3

For CLDN19 (GeneID 149461) #1, what does the deposit list?
total luciferase, z-score: -2.91; total luciferase, % of control: 23.9

With CLDN19 (GeneID 149461) #2, what was measured?
total luciferase, z-score: 1.05; total luciferase, % of control: 103

How did the screen score CLDN19 (GeneID 149461) #3?
total luciferase, z-score: -0.72; total luciferase, % of control: 67.6

With GABRA6 (GeneID 2559) #1, how do the results read?
total luciferase, z-score: 0.365; total luciferase, % of control: 89.1

What did the screen give for GABRA6 (GeneID 2559) #2?
total luciferase, z-score: -0.609; total luciferase, % of control: 69.8

Which result is listed for GABRA6 (GeneID 2559) #3?
total luciferase, z-score: -0.835; total luciferase, % of control: 65.3

What is on record for RNF150 (GeneID 57484) #1?
total luciferase, z-score: 1.1; total luciferase, % of control: 104

For RNF150 (GeneID 57484) #2, what does the deposit list?
total luciferase, z-score: -0.272; total luciferase, % of control: 76.5

What did the screen give for RNF150 (GeneID 57484) #3?
total luciferase, z-score: -0.154; total luciferase, % of control: 78.8

With SOBP (GeneID 55084) #1, what was measured?
total luciferase, z-score: -0.776; total luciferase, % of control: 66.5

How did the screen score SOBP (GeneID 55084) #2?
total luciferase, z-score: -1.29; total luciferase, % of control: 56.1

With SOBP (GeneID 55084) #3, what was measured?
total luciferase, z-score: 0.125; total luciferase, % of control: 84.4

An excerpt from above, limited to “total luciferase, % of control”:
ASB3 (GeneID 51130) #3 = 77.3
STEAP1B (GeneID 256227) #1 = 150 (active)
